From US20180364256A1
Where a chain is given by its changes, count along the chain named. Results are given in words; binding and its absence hold for the method and conditions named. Some entries that bind do so weakly or less than the wild type.

By UniProt entry, the sequences of proteins in these tests, tags left out. Where a name states a change or a piece, a line headed by the entry shows the natural chain unless it says otherwise. Chains listed by the source or under a name are the forms on record and can include a tag or linker.
mouse cardiac TnT (P50752, form named): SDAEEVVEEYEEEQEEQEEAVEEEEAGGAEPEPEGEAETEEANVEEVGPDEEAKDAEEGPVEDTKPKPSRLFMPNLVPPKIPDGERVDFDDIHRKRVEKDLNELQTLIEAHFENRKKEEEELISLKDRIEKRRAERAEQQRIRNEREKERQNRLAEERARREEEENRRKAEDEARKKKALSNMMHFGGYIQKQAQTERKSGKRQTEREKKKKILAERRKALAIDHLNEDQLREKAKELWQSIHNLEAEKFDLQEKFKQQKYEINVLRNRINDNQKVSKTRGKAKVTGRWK

B1: mouse monoclonal antibody 2F11 (antibody, IgG1, V domains shown)
VH: GPELVKPGASVKISCKTSGYTFTENTIHWVKQSHGKSLEWVGGINPNNGGTNYNQKFKGRAALTVDKSSSTAYMELRSLTSEDSAVYYCARSWDWFAYWGQGTLVTVSA
VL: LSLPVSLGDQASISCRSSQSLVHSNGNTYLHWYLQKPGQSPKLLVYKVSNRFSGVPDRFSGSGSGTDFTLKIIRVKAEDLGVYFCSQSTRIPFTFGSGTKLEMKR
B2: mouse monoclonal antibody 3F3 (antibody, IgG1, V domains shown)
VH: B1 VH
VL: B1 VL
B3: mouse monoclonal antibody 1D6 (antibody, V domains shown)
VH: B1 VH
VL: B1 VL with K76E
B4: mouse monoclonal antibody 2A8 (antibody, V domains shown)
VH: B1 VH
VL: B1 VL with K76E
B5: mouse monoclonal antibody 2D11 (antibody, IgG1, V domains shown)
VH: B1 VH
VL: B1 VL
B6: mouse monoclonal antibody 2C1 (antibody, V domains shown)
VH: B1 VH
VL: B1 VL with K76E
B7: mouse monoclonal antibody 3H5 (antibody, IgM, V domains shown)
VH: GGGLVQPKGSLKLSCAASGFTFNTYAMNWVRQAPGKGLEWVARIRSKSNNYATYYADSVKDRFTISRDDSQSMLYLQMNNLKTEDTAMYYCVRHDGVAWFAYWGQGTLVTVSA
VL: LSLPVSLGDQASISCRSSQSIVHSNGNTYLEWYLQKPGQSPKLLIYKVSNRFSGVPDRFSGSGSGTDFTLKISRVEAEDLGVYYCFQGSHVPPTFGAGTKLELKR
B8: mouse monoclonal antibody 4F5 (antibody, IgM, V domains shown)
VH: B7 VH
VL: B7 VL with R16K, E76K
B9: mouse monoclonal antibody 2D9 (antibody, IgM, V domains shown)
VH: B7 VH
VL: B7 VL with R16K, E31K, E76K
B10: mouse monoclonal antibody 2H3 (antibody, IgM, V domains shown)
VH: B7 VH
VL: B7 VL with E76K

target: N-terminal fragment of human cardiac troponin T (HcTnT-N69) (human); test: indirect ELISA titration, antigen immobilised on plate

binding	Binder
binds	B1
binds	B2

target: intact human cardiac troponin T (HcTnT) (human) (UniProt P45379); test: as above

binding	Binder
binds	B3
binds	B4
binds	B5
binds	B1
binds	B6
binds	B2
binds	B7

target: N-terminal fragment of human cardiac troponin T (HcTnT-N69) (human); test: assay not named in the sentence (ELISA titration, FIG. 9A)

binding	Binder
binds	B1
binds	B2

target: intact human cardiac troponin T (HcTnT) (human) (UniProt P45379); test: as above

binding	Binder
binds	B3
binds	B4
binds	B5
binds	B1
binds	B6
binds	B2
binds	B7

target: N-terminal fragment of human cardiac troponin T (HcTnT-N69) (human); test: assay not named in the sentence (ELISA titration per the Examples)

binding	Binder
binds	B1
binds	B2

target: intact human cardiac troponin T (HcTnT) (human) (UniProt P45379); test: as above

binding	Binder
binds	B3
binds	B4
binds	B5
binds	B1
binds	B6
binds	B2
binds	B7
binds	B8
binds	B9
binds	B10

target: intact human cardiac troponin T (HcTnT) (human) (UniProt P45379); test: Western blot on total protein extracts of cardiac and skeletal muscle tissues

binding	Binder
binds	B3
binds	B4
binds	B5
binds	B1
binds	B6
binds	B2
binds	B7
binds	B8

target: mouse cardiac TnT (mouse) (UniProt P50752); test: as above

binding	Binder
binds	B8
